# Measurements from PMC4823034.
# Sequences of proteins named here, by UniProt entry; tags and fusion partners are left off.
# UniProt P38398: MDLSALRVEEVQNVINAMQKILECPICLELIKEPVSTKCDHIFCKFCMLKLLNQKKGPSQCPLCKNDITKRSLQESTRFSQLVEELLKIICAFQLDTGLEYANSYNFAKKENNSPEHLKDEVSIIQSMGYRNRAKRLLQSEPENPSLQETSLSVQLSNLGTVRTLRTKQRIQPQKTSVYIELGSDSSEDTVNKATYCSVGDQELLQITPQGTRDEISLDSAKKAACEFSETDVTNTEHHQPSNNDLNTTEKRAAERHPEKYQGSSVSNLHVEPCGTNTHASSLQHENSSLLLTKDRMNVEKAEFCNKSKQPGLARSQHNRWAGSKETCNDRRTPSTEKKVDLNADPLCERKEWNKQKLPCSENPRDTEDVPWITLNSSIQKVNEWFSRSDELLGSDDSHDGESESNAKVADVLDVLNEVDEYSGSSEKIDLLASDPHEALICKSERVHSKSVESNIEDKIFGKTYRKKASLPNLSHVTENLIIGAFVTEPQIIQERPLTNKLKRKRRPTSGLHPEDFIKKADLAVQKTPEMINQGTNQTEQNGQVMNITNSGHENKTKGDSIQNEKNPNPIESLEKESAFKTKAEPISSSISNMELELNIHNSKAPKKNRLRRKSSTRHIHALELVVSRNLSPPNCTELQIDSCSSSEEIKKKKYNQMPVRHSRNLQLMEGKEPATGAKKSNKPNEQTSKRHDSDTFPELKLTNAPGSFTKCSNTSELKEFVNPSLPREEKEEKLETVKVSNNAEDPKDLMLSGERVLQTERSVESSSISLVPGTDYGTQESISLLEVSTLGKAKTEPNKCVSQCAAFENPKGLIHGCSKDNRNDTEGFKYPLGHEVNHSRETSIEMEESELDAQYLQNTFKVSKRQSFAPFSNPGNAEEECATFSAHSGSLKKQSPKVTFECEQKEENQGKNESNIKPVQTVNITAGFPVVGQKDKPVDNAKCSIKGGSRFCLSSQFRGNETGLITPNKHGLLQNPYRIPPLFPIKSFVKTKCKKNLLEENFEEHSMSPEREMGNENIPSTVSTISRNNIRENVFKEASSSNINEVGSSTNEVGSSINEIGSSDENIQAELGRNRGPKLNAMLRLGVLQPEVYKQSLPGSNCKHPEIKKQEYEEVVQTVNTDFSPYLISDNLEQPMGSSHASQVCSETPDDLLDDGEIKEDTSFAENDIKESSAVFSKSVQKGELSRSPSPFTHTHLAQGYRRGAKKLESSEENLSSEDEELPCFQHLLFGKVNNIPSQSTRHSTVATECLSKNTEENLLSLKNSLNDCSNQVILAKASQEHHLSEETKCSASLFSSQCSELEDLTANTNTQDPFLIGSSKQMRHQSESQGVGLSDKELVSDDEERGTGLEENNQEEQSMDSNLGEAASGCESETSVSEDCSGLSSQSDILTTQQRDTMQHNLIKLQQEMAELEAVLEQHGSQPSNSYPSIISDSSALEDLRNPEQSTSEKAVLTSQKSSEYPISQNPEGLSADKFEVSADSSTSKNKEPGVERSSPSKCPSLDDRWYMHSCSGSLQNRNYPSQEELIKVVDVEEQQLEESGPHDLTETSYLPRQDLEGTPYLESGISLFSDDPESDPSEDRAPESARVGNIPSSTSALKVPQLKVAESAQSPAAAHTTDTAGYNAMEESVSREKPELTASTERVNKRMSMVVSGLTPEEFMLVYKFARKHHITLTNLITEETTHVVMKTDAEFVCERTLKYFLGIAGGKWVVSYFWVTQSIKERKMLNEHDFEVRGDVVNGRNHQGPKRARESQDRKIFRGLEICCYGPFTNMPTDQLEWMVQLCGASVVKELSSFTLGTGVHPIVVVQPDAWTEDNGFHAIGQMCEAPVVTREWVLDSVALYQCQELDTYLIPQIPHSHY
# UniProt P53350: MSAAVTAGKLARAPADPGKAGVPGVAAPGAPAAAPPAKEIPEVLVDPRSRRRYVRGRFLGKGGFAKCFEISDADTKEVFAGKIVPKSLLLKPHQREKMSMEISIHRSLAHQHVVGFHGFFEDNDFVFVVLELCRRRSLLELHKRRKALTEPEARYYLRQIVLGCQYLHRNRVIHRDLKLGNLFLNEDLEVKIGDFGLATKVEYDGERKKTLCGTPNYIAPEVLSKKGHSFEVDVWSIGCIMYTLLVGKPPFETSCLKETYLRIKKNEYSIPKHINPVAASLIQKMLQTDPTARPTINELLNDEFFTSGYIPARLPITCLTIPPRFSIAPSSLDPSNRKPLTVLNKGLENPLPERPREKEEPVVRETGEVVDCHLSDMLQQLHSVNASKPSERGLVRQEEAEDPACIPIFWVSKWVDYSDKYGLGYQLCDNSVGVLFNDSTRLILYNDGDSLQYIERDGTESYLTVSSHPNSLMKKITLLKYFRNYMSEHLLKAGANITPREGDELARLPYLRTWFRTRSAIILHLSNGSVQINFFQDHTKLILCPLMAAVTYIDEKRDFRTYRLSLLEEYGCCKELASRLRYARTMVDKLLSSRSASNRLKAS
# These are yes or no findings as the source states them, for the method shown. Binding seen in cells or lysates may run through a third protein. Some results given as binding are weak or reduced against the parent protein; the word gives no strength.
# Experiments:
# [1] = biological target: BRCA1 (human (endogenous in HeLa and MCF-7)) (UniProt P38398); assay: co-IP; whole-cell extracts of undamaged MCF-7 cells; antibodies against either protein, protein A-sepharose, immunoblot
# [2] = biological target: BRCA1 (human (endogenous in HeLa and MCF-7)) (UniProt P38398); assay: co-IP; whole-cell extracts of asynchronous HeLa cells, untreated or treated with calicheamicin (CLM) for 1 h; IP with anti-BRCA1 or anti-Plk1 antibody at 4°C overnight, protein A-sepharose, immunoblot with anti-BRCA1 and anti-Plk1; control IP without antibody
# [3] = biological target: BRCA1 (human (endogenous in HeLa and MCF-7)) (UniProt P38398); assay: condition: only cells treated with RO-3306 (CDK1 inhibitor) for 4 h; co-IP; whole-cell extracts of HeLa cells treated with 10 uM RO-3306 (CDK1 inhibitor) for 4 h; IP with anti-BRCA1 antibody, protein A-sepharose, immunoblot with anti-BRCA1 and anti-Plk1
substance,measurement,setting,value
Polo-like kinase 1 (from UniProt P53350 1-603) (enzyme),binding,[1],binds
same,binding,[2],binds
same,binding,[3],no binding
